Experiment [1] deals with T1, SecY1–YFP^N (Myc tagged) (Arabidopsis thaliana) (UniProt Q38885).
T1 sequence: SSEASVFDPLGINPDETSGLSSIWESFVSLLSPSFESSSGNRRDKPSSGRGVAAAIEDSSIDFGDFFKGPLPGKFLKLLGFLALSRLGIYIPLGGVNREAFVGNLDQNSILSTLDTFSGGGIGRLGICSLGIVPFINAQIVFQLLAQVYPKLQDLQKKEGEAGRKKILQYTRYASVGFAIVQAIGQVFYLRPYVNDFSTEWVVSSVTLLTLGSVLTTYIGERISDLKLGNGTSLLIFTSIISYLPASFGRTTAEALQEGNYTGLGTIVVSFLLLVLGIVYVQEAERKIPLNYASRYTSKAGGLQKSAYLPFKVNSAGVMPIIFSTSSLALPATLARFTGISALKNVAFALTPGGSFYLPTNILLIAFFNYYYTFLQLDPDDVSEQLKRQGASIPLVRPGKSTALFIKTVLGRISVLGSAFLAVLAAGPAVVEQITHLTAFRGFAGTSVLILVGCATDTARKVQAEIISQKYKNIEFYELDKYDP
Kind of experiment: co-IP; intact tobacco chloroplasts after co-infiltration, solubilised with an equal volume of buffer with 2% digitonin (100 mM Tris-HCl pH 7.5, 300 mM NaCl); anti-Myc antibody and protein A-agarose hold Myc-tagged SecY1–nYFP; immunoblot; wild-type leaves as control.

By UniProt entry, the sequences of proteins in these tests, tags left out. Where a name states a change or a piece, a line headed by the entry shows the natural chain unless it says otherwise.
UniProt P23321: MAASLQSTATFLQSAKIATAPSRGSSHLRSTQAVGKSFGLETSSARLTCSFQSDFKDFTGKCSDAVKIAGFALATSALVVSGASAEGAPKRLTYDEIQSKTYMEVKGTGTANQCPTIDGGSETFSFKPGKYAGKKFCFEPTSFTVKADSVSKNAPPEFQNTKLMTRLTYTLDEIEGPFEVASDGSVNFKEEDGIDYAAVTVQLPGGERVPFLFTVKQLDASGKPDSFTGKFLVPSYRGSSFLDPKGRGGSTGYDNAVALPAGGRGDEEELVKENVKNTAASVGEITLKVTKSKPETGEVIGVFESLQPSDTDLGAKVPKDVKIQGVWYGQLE

Experiment [2] concerns the target T1, SecY1–YFP^N (Myc tagged) (Arabidopsis thaliana). The experiment can be described thus: split reporter; split YFP (nYFP/cYFP at the C-termini), transient co-expression in N. benthamiana leaf mesophyll chloroplasts, confocal microscopy 48 h after infiltration; also with 10 mM sodium azide or 30 uM geldanamycin.
Experiment [3] deals with T2, SecY1–T7 (Arabidopsis thaliana) (UniProt Q38885).
T2 sequence: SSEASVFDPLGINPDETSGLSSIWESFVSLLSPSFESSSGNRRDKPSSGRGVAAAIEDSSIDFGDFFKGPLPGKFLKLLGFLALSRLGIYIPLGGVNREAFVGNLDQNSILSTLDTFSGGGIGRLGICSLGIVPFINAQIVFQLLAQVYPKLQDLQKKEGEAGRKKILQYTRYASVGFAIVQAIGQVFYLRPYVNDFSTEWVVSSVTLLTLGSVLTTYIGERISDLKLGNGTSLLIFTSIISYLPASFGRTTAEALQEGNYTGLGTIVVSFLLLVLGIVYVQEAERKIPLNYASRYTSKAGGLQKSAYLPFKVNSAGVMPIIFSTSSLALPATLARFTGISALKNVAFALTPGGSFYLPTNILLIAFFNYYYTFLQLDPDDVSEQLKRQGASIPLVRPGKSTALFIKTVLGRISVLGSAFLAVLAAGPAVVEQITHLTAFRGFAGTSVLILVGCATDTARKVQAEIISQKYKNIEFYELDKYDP
Kind of experiment: co-IP; chloroplasts of 12-day-old SECY1–T7/secy1 Arabidopsis seedlings, solubilised with 0.5% DDM; anti-T7 agarose; immunoblot with anti-HSP90C; wild-type seedlings as control; also with 10 mM sodium azide, 30 uM geldanamycin or both. On the technique in general: Immunoblotting shows a protein as a band on a membrane.

Results are given in words; binding and its absence hold for the method and conditions named. In cells and extracts the contact can be indirect. Some binding calls cover weakened binding; strength is not graded here. For some of these results: Where a sequence is shown, tags or fusion partners need not be part of it.

This passage reports binding results from publication PMC7906790.

With “PsbO1^59–332GFP (from UniProt P23321 59-332) (domain or fragment)”, the binding result in experiment [1] was “binds”.
On the same count and under the same terms, to “PsbO1^86–332GFP (from UniProt P23321 86-332) (domain or fragment)” belongs “binds”.

B1: HSP90C–YFP^C (protein, UniProt Q9SIF2 61-780)
chain: CDAAVAEKETTEEGSGEKFEYQAEVSRLLDLIVHSLYSHKEVFLRELVSNASDALDKLRFLSVTEPSLLGDGGDLEIRIKPDPDNGTITITDTGIGMTKEELIDCLGTIAQSGTSKFLKALKENKDLGADNGLIGQFGVGFYSAFLVAEKVVVSTKSPKSDKQYVWESVADSSSYLIREETDPDNILRRGTQITLYLREDDKYEFAESTRIKNLVKNYSQFVGFPIYTWQEKSRTIEVEEDEPVKEGEEGEPKKKKTTKTEKYWDWELANETKPLWMRNSKEVEKGEYNEFYKKAFNEFLDPLAHTHFTTEGEVEFRSILYIPGMGPLNNEDVTNPKTKNIRLYVKRVFISDDFDGELFPRYLSFVKGVVDSDDLPLNVSREILQESRIVRIMRKRLIRKTFDMIQEISESENKEDYKKFWENFGRFLKLGCIEDTGNHKRITPLLRFFSSKNEEELTSLDDYIENMGENQKAIYYLATDSLKSAKSAPFLEKLIQKDIEVLYLVEPIDEVAIQNLQTYKEKKFVDISKEDLELGDEDEVKDREAKQEFNLLCDWIKQQLGDKVAKVQVSNRLSSSPCVLVSGKFGWSANMERLMKAQALGDTSSLEFMRGRRILEINPDHPIIKDLNAACKNAPESTEATRVVDLLYDTAIISSGFTPDSPAELGNKIYEMMAMAVGGRWGRVEEEEESSTVNEGDDKSGETEVVEPSEVRAESDPWQD
On to B1, for which the binding result in experiment [2] is given as “binds”.

B2: endogenous Arabidopsis HSP90C (protein, UniProt Q9SIF2 61-780)
chain: CDAAVAEKETTEEGSGEKFEYQAEVSRLLDLIVHSLYSHKEVFLRELVSNASDALDKLRFLSVTEPSLLGDGGDLEIRIKPDPDNGTITITDTGIGMTKEELIDCLGTIAQSGTSKFLKALKENKDLGADNGLIGQFGVGFYSAFLVAEKVVVSTKSPKSDKQYVWESVADSSSYLIREETDPDNILRRGTQITLYLREDDKYEFAESTRIKNLVKNYSQFVGFPIYTWQEKSRTIEVEEDEPVKEGEEGEPKKKKTTKTEKYWDWELANETKPLWMRNSKEVEKGEYNEFYKKAFNEFLDPLAHTHFTTEGEVEFRSILYIPGMGPLNNEDVTNPKTKNIRLYVKRVFISDDFDGELFPRYLSFVKGVVDSDDLPLNVSREILQESRIVRIMRKRLIRKTFDMIQEISESENKEDYKKFWENFGRFLKLGCIEDTGNHKRITPLLRFFSSKNEEELTSLDDYIENMGENQKAIYYLATDSLKSAKSAPFLEKLIQKDIEVLYLVEPIDEVAIQNLQTYKEKKFVDISKEDLELGDEDEVKDREAKQEFNLLCDWIKQQLGDKVAKVQVSNRLSSSPCVLVSGKFGWSANMERLMKAQALGDTSSLEFMRGRRILEINPDHPIIKDLNAACKNAPESTEATRVVDLLYDTAIISSGFTPDSPAELGNKIYEMMAMAVGGRWGRVEEEEESSTVNEGDDKSGETEVVEPSEVRAESDPWQD
In the case of B2, the binding entry in experiment [3] is recorded as “binds”.
